In the supplement of paper PMC10849652:
Some of the results follow.

By UniProt entry, the sequences of proteins in these tests, tags left out. Where a name states a change or a piece, a line headed by the entry shows the natural chain unless it says otherwise.
UniProt Q96N67: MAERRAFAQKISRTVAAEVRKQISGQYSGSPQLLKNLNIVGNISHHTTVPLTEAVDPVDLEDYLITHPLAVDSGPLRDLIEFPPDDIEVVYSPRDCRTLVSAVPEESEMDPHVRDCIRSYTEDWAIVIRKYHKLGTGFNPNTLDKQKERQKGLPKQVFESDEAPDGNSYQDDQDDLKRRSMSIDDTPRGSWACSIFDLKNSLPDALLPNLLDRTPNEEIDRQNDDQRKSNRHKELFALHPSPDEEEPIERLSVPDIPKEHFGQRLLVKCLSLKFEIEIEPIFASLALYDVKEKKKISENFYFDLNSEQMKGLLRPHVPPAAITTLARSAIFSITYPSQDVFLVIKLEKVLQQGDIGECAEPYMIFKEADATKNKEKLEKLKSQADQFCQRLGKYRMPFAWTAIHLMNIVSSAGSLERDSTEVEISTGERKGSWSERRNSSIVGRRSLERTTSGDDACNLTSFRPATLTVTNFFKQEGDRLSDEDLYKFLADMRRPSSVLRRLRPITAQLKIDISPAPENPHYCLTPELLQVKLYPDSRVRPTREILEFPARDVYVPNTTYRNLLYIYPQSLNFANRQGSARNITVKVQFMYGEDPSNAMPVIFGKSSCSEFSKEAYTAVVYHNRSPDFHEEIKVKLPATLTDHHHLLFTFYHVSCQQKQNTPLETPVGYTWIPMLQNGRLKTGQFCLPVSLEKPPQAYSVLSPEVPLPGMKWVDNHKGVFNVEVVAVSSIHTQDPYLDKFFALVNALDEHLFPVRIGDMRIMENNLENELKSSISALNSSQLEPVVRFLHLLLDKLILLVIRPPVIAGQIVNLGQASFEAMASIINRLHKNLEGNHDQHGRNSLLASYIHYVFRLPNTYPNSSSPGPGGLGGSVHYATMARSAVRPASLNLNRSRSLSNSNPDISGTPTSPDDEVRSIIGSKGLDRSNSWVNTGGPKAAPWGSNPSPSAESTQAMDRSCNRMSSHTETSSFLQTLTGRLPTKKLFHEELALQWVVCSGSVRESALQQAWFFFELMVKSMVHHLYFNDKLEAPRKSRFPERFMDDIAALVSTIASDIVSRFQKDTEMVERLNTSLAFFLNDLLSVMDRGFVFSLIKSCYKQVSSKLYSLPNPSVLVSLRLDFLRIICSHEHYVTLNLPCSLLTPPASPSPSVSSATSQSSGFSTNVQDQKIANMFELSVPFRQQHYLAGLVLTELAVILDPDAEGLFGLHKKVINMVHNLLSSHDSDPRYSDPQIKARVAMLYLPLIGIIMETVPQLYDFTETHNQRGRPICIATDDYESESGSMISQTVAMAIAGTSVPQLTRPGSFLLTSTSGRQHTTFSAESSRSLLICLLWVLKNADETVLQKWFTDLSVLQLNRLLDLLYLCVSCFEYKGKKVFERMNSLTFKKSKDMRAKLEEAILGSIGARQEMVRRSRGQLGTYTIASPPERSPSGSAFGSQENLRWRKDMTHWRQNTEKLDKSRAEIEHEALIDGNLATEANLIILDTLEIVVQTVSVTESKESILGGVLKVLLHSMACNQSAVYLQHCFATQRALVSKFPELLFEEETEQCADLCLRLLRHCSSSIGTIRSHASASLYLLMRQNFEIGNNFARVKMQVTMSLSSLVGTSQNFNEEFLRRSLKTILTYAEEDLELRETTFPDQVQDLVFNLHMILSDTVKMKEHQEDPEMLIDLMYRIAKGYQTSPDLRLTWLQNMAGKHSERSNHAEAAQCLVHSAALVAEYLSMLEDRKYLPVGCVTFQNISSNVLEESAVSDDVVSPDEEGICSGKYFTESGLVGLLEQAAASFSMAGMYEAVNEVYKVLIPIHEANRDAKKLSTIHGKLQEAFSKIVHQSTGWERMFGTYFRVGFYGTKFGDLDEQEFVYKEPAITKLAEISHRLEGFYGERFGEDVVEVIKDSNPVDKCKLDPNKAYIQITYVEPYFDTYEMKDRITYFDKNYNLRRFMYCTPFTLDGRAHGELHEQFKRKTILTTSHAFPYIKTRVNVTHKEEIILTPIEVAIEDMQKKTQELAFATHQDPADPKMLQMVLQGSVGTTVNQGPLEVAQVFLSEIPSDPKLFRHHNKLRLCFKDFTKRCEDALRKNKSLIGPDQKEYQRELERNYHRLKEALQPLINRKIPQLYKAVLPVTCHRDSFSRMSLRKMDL
UniProt Q7Z388: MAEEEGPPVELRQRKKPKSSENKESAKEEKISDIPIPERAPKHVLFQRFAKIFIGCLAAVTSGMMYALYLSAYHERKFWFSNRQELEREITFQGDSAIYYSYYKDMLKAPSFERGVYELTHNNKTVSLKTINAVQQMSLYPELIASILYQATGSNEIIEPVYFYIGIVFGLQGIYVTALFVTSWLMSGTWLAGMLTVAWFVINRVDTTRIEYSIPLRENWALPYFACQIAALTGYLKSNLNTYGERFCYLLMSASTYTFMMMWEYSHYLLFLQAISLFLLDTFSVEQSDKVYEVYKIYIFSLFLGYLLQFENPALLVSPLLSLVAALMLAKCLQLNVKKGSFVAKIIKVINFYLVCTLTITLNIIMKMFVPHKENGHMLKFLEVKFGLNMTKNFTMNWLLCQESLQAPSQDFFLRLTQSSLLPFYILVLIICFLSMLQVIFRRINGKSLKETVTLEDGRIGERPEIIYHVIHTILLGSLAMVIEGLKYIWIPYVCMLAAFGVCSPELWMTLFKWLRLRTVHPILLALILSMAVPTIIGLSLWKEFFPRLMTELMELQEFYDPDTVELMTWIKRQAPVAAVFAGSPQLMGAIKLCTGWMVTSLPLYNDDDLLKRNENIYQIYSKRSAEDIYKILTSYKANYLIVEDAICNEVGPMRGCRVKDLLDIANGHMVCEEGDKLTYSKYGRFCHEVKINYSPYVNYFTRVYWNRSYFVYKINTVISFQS
UniProt Q86TI2: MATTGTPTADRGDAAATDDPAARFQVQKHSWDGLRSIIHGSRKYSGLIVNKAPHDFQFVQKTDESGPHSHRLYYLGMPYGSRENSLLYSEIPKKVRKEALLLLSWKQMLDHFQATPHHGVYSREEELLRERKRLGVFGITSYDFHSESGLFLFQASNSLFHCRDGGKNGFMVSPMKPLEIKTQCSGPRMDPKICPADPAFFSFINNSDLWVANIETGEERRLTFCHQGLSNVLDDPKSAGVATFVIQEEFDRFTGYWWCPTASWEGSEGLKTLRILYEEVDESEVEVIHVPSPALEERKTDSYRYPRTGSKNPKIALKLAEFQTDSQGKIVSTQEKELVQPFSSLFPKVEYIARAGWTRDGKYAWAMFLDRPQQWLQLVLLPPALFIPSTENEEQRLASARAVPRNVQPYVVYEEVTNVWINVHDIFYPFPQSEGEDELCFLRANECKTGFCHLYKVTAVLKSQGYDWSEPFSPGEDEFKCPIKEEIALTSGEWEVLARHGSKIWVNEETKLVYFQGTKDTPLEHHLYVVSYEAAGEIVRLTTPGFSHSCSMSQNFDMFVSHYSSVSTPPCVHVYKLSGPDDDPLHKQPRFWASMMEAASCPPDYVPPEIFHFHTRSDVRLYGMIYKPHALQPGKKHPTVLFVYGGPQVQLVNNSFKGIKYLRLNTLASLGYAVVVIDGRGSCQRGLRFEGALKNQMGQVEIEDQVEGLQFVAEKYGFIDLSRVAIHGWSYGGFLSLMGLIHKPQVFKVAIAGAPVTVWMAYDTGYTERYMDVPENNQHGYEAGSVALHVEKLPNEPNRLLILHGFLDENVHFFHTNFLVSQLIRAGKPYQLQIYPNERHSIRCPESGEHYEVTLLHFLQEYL
UniProt Q9BZQ6: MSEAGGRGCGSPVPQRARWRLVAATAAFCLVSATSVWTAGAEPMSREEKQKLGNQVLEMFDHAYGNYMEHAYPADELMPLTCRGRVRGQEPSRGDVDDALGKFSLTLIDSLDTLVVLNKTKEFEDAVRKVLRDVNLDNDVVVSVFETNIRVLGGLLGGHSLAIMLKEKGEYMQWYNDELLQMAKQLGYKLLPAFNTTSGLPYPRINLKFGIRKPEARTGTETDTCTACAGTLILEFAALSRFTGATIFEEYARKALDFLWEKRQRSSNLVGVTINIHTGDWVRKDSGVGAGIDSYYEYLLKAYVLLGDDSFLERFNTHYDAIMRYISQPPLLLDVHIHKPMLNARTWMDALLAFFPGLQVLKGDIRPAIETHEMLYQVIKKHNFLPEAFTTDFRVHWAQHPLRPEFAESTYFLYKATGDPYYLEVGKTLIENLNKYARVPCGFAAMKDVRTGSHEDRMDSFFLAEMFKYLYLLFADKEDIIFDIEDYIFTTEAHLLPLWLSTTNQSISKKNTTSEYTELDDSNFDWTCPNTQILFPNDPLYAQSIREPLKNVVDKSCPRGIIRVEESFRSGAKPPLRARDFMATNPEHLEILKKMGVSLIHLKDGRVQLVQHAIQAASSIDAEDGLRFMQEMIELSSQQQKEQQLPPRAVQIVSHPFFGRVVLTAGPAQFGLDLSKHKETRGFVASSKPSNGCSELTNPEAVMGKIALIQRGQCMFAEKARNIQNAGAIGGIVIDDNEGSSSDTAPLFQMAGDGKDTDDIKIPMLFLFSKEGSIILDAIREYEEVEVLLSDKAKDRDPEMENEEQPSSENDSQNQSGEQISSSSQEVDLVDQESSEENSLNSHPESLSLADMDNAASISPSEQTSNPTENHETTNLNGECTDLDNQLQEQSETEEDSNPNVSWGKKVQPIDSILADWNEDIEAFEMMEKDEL
UniProt Q15125: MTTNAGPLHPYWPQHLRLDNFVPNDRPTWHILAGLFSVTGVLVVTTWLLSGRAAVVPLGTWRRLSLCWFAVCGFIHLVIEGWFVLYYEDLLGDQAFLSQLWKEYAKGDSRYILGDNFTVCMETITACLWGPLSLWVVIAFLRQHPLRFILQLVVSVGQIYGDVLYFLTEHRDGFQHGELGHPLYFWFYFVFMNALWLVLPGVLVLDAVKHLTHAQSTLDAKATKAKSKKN
UniProt P63167, whole entry, looked up: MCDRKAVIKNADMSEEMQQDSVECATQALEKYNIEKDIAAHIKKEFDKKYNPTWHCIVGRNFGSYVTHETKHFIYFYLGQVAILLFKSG
UniProt P42126: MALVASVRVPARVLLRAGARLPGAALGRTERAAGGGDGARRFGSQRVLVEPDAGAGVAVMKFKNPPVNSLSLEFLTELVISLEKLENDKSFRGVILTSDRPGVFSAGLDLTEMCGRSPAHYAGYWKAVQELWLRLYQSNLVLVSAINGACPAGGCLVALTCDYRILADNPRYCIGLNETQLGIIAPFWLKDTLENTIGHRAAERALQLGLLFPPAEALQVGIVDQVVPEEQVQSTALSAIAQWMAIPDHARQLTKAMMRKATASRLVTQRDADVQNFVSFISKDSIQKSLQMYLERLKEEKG
UniProt O00429, whole entry, looked up: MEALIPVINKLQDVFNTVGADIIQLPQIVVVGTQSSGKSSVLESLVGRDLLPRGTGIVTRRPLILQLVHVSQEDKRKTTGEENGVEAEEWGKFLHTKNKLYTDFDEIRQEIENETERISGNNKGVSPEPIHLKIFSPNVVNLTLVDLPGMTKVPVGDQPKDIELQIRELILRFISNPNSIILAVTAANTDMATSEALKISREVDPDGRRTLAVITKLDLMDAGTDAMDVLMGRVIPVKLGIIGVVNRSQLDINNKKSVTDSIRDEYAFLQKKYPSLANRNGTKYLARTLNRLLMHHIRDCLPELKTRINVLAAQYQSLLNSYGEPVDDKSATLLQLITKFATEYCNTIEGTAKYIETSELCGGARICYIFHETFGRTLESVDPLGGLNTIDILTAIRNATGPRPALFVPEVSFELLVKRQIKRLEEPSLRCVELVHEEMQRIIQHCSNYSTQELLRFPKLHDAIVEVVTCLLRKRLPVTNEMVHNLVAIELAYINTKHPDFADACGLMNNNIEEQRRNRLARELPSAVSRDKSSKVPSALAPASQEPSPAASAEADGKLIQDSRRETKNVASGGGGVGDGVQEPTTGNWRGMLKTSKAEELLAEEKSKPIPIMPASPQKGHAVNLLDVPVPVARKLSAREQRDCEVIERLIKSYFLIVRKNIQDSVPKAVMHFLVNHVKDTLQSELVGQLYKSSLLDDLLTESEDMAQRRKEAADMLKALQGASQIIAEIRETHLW
UniProt Q9NTX5: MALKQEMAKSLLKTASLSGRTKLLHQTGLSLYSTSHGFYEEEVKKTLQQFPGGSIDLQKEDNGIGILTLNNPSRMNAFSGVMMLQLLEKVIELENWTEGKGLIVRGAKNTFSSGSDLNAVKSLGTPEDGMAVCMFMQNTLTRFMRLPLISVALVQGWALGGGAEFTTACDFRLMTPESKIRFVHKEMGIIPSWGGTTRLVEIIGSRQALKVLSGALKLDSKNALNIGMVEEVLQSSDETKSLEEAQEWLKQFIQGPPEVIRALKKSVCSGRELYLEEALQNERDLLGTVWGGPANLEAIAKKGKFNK
UniProt Q8TEA8: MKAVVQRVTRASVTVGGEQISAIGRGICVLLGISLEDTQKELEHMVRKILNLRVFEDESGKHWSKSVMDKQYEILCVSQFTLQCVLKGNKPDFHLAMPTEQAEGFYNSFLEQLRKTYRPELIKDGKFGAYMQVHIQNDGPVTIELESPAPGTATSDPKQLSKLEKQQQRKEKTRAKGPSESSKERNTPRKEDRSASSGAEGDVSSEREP

Compound: CC[C@H](C)N1C=C(C2=C(C=C(C=C21)C3=CN=C(C=C3)N4CCNCC4)C(=O)NCC5=C(C=C(NC5=O)C)C)C
Assay: log2 fold change, soluble protein after heating vs DMSO (PISA); higher = thermal stabilisation; K562 cells, 10 uM, 30 min; active = over 0.2 and 3.5 SD of the protein, either way, in both replicates (recomputed)
Summary of the method: (§1)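 K562 cells (2×10^6 cells/mL) were treated with 10 μM compound for 30 min, and aliquots were heated for 3 min over 48°C-58°C. Pooled aliquots were extracted in PBS with 0.5% NP-40 at 4°C, and the supernatant after 21,000xg for 90 min was measured by TMTpro 16plex LC-MS/MS with channel sums equalised. Reported thermal stability, relative to control samples and from duplicates, is a log2 fold change.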

log2 fold change, inactive:
DUT (UniProt P33316) -0.006, DNPH1 (UniProt O43598) -0.051, DPAGT1 (UniProt Q9H3H5) -0.027, DPH1 (UniProt Q9BZG8) 0.051, DOCK7 (UniProt Q96N67) 0.071, DPY19L4 (UniProt Q7Z388) 0.025, DPP9 isoform 2 (UniProt Q86TI2) 0.072, DPH7 (UniProt Q9BTV6) 0.02, EDEM3 (UniProt Q9BZQ6) 0.003

Compound: CC[C@H](C)[C@@H](C(=O)N[C@@H]([C@@H](C)O)C(=O)N[C@@H](CC(C)C)C(=O)[C@]1(CO1)C)NC(=O)[C@H]([C@@H](C)CC)N(C)C(=O)C [epoxomicin]
Assay: as above
Summary of the method: as §1

log2 fold change, inactive:
EDEM1 (UniProt Q92611) 0.045, EBP (UniProt Q15125) -0.016, DYNLL1 (UniProt P63167) -0.009, DPH6 (UniProt Q7L8W6) 0.049, ECSIT (UniProt Q9BQ95) 0.001, DNAJC9 (UniProt Q8WXX5) 0.035, DNAJC2 (UniProt Q99543) 0.022, ECI1 (UniProt P42126) -0.027, DNM1L isoform 6 (UniProt O00429) 0.042, DPF2 (UniProt Q92785) -0.078, DNAJB4 (UniProt Q9UDY4) -0.006, ECHDC1 (UniProt Q9NTX5) -0.018, DTD1 (UniProt Q8TEA8) 0.003, DR1 (UniProt Q01658) 0.004, DPY30 (UniProt Q9C005) 0.643
